Assay results

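Uptake of anthrax lethal toxin into cultured cells, read by FRET (460/530 nm ratio) and reported from the 460 nm channel; the cell line is not named here.
Each compound was tested as a concentration series from about 0.0005 to 40 µM.
The number is the fitted AC50 of the 460 nm signal alone; lower values mean a more potent effect. A falling signal goes with compounds filed as inhibitors or cytotoxic, a rising one with activators or fluorescent compounds (inferred from the filed classes).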

Values are in nM.
Common to all entries: measured here: 460 nm channel.
Part of the compounds only, not a random draw; the main read-out is not listed here.
A potency from a partial, single-point or poor curve is only a rough figure.
The first word of each remark tells which way the curve ran; it can be opposite to the aim of the assay.

| # | compound | AC50 (nM) | remark |
|---|---|---|---|
| 1 | `CC(=O)Nc1ccc(S(=O)(=O)N2CCN(C(=O)CCC3CCCC3)CC2)cc1` | 7943 | rising, partial curve |
| 2 | `CCOc1ccc2nc(NS(C)(=O)=O)sc2c1` | 125.9 | falling, full curve, poor fit |
| 3 | `O=c1c(-c2ccc(Br)cc2)coc2c(CN3CCOCC3)c(O)ccc12` | 10000 | falling, partial curve |
| 4 | `Clc1ccc(-c2nc3nc4ccccc4nc3n2Cc2ccco2)cc1` | 5012 | rising, single point |
| 5 | `CC1CN(S(=O)(=O)c2ccc(NC(=O)c3cc(-c4ccccc4O)n[nH]3)cc2)CC(C)O1` (stereo not shown) | 158.5 | rising, single point |
| 6 | `O=c1ccc2cc3c([nH]c4ccc(Br)cc43)oc-2c1O` | 10000 | falling, partial curve |
| 7 | `COc1cccc(C2C(C(=O)c3ccc(C)o3)=C(O)C(=O)N2CCCN(C)C)c1` (stereo not shown) | 3162 | rising, partial curve |
| 8 | `COCCn1c(=O)c(-c2cc(F)cc(F)c2)nc2cnc(N(C)C)nc21` | 12589 | rising, partial curve |
| 9 | `CC(=O)c1c[nH]c2ccc(C)cc2c1=O` | 5012 | falling, single point |
| 10 | `COCCCNC(=O)CCC(=O)Nc1ccc2nc(N3CCOCC3)cc(C)c2c1` | 5012 | rising, single point |
| 11 | `Cn1c(C(=O)Nc2ccc3c(c2)OCCO3)cc2c(=O)n(C)c3ccccc3c21` | 794.3 | falling, full curve |
| 12 | `O=C(O)c1ccc(Cl)c2c1C1C=CCC1C(c1ccccn1)N2` (stereo not shown) | 10000 | falling, single point |
| 13 | `CCN(CC)c1nc(Nc2ccc(Cl)cc2)nc(OCC#N)n1` | 15848 | falling, partial curve |
| 14 | `O=C(c1cccc(F)c1)N1CCC2(CCCN(Cc3ccccc3)C2)CC1` | 5012 | falling, single point |
| 15 | `CCCCCCC(=O)N(O)C1CC(=O)N(c2ccccc2)C1=O` (stereo not shown) | 1995 | falling, partial curve |
| 16 | `Nc1c(C(=O)NCc2ccco2)sc2nc3c(cc12)C(=O)CCC3` | 31.62 | rising, full curve, poor fit |
| 17 | `Cc1cc(NC(=O)c2noc3c2CCCC3)n(-c2ccccc2)n1` | 5012 | rising, single point |
| 18 | `c1ccc(-c2nc(N3CCOCC3)c3ccccc3n2)nc1` | 1000 | falling, partial curve |
| 19 | `C[N+]1(C)CCC(=C(c2ccccc2)c2ccccc2)CC1` | 2512 | rising, partial curve, poor fit |
| 20 | `c1ccc(-c2ccc(N3CCCC4(CCNCC4)C3)cc2)cc1` | 15848 | falling, partial curve |
| 21 | `COc1ccc(C2Nc3ccccc3C(=O)N2Cc2ccco2)cc1COc1ccc(NC(C)=O)cc1` (stereo not shown) | 10000 | rising, single point |
| 22 | `COC(=O)c1cc(=O)n(C2CC2)c(=NC2CC2)s1` | 15848 | rising, partial curve |
| 23 | `COC(=O)c1cc(OC)c(OC)cc1NC(=O)CN1CCCCC1` | 3.981 | falling, full curve, poor fit |
| 24 | `Cc1ccccc1N1C(=O)C(Cl)=C(N2CCN(c3ccccc3)CC2)C1=O` | 10000 | falling, partial curve |
| 25 | `CCc1ccc2nc(NC3=NCN(CCN4CCOCC4)CN3)nc(C)c2c1` | 31.62 | falling, full curve, poor fit |
| 26 | `CCOc1ccc(C(=O)Nc2c3c(nn2C(C)(C)C)CSC3)cc1OCC` | 10000 | rising, partial curve |
| 27 | `Cc1ccc2occ(CN3CC4CC(C3)c3cccc(=O)n3C4)c(=O)c2c1` (stereo not shown) | 6310 | rising, partial curve |
| 28 | `COc1ccc(C(=O)C2CCN(S(=O)(=O)c3ccc4c(c3)OCCO4)CC2)cc1` | 10000 | falling, single point |
| 29 | `CC(C)OCCCn1c(=S)[nH]c2cc3c(cc2c1=O)OCO3` | 5012 | rising, single point |
| 30 | `COC(=O)[C@@]1(Cc2ccc(OC)cc2)[C@H]2c3cc(C(=O)N4CCCC4)n(CCc4c[nH]c5ccccc45)c3C[C@H]2CN1C(=O)c1ccccc1` | 3162 | falling, single point |
| 31 | `CCNc1ncc2nc(-c3cn(C)c4ccccc34)c(=O)n(-c3ccc(OC)cc3)c2n1` | 1995 | rising, partial curve |
| 32 | `Cc1noc(C)c1C(=O)N1CCC[C@@]2(CCN(C(=O)Nc3cccc(C#N)c3)C2)C1` | 19.95 | falling, full curve, poor fit |
| 33 | `Cc1ccc2cccc(OC(=O)N(C)c3ccccc3)c2n1` | 12589 | falling, single point |
| 34 | `Cc1oc(-c2ccc(Cl)cc2)cc1-c1nn2c(-c3ccoc3C)nnc2s1` | 15848 | falling, partial curve |
| 35 | `Cc1cc2ncc(-c3ccc(Cl)cc3)c(N)n2n1` | 31622 | falling, partial curve |
| 36 | `CS(=O)(=O)N1CCC(C(=O)NCc2ccncc2)CC1` | 25118 | rising, single point |
| 37 | `COc1ccc(CN2CCN(C(=O)c3cc(OC)c(OC)c(OC)c3)CC2)cc1OC` | 10000 | rising, partial curve |
| 38 | `CCN1CCN(C(=O)C2CCN(Cc3nc(-c4cccc(Cl)c4)oc3C)CC2)CC1` | 12589 | falling, partial curve |
| 39 | `O=C(CN(Cc1ccccc1C(F)(F)F)C(=O)CNC(=O)c1ccco1)NC1CCCC1` | 7943 | rising, partial curve |
| 40 | `O=C(CSc1nc(-c2ccccc2)cc(=O)[nH]1)Nc1ccccn1` | 10000 | rising, single point |
| 41 | `O=c1c(-c2ccc(Cl)cc2)nc2cnc(N3CCOCC3)nc2n1CCc1ccccc1` | 5012 | rising, single point |
| 42 | `C1C[C@@H]2CN(CCCN3CCOCC3)[C@@H](C1)O2` | 1000 | falling, partial curve |
| 43 | `COc1cc(-c2nc(S(=O)(=O)c3ccccc3)c(N3CCOCC3)o2)cc(OC)c1OC` | 12589 | rising, partial curve, poor fit |
| 44 | `Cn1nc(-c2ccc(OCC(=O)N3CCN(Cc4ccccc4)CC3)cc2)c2ccccc2c1=O` | 10000 | rising, single point |
| 45 | `COc1ccc(NC(=O)N2CCN(c3nc(-c4cccc(OC)c4)cs3)CC2)cc1` | 12589 | falling, single point |
| 46 | `O=C(Oc1ccc2c(c1)OCO2)c1ccc(Br)c(S(=O)(=O)N2CCOCC2)c1` | 199.5 | falling, full curve, poor fit |
| 47 | `CCOC(=O)c1cc(-c2ccc(F)cc2)n(CC(=O)Nc2nccs2)c1C` | 10000 | falling, partial curve |
| 48 | `O=C(Nc1ccccc1)N1CCCC2(CCN(C(=O)c3cc(C(F)(F)F)cc(C(F)(F)F)c3)CC2)C1` | 25118 | rising, single point |
| 49 | `CN1CCCN(C(=O)Cc2c(Cl)cccc2Cl)c2nc3ccccc3nc21` | 15848 | rising, single point |

Data taken from PubChem BioAssay AID912, deposited by NCATS (2007).